For the assay, the target named is Phosphatidylinositol 4,5-bisphosphate 3-kinase catalytic subunit beta isoform (Homo sapiens, UniProt P42338). Kind of assay: Inhibition of PI3Kbeta (unknown origin).

Chains of the proteins cited; added tags and fusions are not shown. Lines headed by an entry give the natural chain unless they say otherwise; changes in a name come on top.
UniProt P42338: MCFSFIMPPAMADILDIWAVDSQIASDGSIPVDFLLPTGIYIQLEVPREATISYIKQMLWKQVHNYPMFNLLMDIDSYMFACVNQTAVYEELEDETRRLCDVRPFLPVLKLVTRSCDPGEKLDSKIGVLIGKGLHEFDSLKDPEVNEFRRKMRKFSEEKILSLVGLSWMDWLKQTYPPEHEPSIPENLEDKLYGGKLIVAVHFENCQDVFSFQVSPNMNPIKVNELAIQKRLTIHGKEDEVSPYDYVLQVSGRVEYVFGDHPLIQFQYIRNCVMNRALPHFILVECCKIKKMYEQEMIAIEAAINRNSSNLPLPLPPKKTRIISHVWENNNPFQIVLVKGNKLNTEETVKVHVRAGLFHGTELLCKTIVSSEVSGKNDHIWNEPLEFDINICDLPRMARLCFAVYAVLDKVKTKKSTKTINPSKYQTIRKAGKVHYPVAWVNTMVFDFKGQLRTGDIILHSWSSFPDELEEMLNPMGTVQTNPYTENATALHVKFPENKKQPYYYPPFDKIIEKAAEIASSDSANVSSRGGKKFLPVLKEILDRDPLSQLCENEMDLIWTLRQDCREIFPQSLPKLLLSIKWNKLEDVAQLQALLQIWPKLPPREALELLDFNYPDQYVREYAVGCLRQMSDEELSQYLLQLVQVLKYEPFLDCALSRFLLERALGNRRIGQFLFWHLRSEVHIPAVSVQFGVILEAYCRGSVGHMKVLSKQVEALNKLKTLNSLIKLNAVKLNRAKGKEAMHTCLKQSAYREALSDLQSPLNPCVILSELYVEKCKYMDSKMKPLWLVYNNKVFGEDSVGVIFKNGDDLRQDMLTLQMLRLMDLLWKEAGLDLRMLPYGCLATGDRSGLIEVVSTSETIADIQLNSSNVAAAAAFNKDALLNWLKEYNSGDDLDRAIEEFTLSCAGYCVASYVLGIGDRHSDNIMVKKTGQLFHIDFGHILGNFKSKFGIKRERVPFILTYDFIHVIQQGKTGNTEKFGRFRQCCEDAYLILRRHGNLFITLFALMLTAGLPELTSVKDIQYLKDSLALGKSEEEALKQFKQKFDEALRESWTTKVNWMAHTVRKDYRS

The term IC50 denotes the concentration at which inhibition is half-maximal. Read a high IC50 as a need for much substance. For the molecule `O=C1NC(=O)/C(=C/c2ccc3nccnc3c2)S1`, the half-maximal inhibitory concentration (IC50) was 2700 nM. This counts as single-digit micromolar.
